Results published in paper PMC5021326.
No constants are given. Whether binding was seen depends on the method and setting. Binding seen in cells or lysates may run through a third protein. Some results given as binding are weak or reduced against the parent protein; the word gives no strength.

By UniProt entry, the sequences of proteins in these tests, tags left out. Where a name states a change or a piece, a line headed by the entry shows the natural chain unless it says otherwise. Chains listed by the source or under a name are the forms on record and can include a tag or linker.
UniProt Q60960: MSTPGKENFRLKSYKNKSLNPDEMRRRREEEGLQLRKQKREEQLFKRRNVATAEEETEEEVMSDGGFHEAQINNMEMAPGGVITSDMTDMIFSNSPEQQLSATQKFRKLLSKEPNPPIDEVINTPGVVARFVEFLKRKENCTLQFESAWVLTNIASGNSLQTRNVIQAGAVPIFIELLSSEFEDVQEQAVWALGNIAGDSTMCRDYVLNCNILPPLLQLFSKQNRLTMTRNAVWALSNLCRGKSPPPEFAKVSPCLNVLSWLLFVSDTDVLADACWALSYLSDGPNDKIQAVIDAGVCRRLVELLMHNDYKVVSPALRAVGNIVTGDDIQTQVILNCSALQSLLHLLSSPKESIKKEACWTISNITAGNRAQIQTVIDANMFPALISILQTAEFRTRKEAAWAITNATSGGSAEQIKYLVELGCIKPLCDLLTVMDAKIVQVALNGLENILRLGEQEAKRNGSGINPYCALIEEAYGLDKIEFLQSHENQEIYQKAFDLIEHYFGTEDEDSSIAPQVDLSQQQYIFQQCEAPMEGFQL
UniProt Q8BVK9: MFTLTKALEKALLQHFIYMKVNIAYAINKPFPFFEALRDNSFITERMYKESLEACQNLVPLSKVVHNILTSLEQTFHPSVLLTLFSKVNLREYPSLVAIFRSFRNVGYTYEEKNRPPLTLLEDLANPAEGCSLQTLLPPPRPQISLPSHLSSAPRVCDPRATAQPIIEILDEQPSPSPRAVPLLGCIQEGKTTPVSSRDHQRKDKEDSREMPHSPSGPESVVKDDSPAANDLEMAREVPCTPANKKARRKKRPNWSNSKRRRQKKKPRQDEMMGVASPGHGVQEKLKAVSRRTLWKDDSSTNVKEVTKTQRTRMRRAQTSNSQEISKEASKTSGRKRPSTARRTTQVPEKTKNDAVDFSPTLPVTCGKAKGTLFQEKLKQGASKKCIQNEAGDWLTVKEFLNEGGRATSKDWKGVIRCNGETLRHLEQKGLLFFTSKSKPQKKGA
HA-tagged Ipr1 ΔcNLS1/2-R424A-K429A mutant (Q8BVK9, form named): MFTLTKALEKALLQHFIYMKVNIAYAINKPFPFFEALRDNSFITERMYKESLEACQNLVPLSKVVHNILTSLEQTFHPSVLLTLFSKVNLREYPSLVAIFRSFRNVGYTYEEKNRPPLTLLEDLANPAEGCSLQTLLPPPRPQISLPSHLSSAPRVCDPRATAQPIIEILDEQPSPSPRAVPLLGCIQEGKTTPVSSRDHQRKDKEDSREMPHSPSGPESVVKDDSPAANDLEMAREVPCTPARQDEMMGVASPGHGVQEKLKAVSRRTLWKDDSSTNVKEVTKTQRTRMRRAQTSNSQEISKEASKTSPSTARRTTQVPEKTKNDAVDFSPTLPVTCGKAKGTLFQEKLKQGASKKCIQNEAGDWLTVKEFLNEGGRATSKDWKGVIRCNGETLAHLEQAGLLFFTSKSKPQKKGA
HA-tagged Ipr1-ΔcNLS1/2 mutant (Q8BVK9, form named): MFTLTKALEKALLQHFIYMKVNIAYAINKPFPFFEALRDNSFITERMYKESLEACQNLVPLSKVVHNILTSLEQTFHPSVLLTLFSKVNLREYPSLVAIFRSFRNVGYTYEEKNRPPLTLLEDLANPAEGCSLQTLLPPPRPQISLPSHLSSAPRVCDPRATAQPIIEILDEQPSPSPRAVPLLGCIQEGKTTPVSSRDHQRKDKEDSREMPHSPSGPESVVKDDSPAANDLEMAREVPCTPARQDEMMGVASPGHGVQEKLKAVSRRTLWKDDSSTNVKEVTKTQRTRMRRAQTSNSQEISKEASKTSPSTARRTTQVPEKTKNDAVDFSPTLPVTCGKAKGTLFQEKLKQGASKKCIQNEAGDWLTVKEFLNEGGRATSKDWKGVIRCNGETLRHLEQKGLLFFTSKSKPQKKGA

Experiments:
[1] = biological target: FLAG-tagged NPI-1 (importin-α5) (mouse (cDNA of RAW264.7 cells)) (UniProt Q60960); assay: co-IP; lysates of co-transfected 293FT cells; Co-IP Kit (Pierce); immunoprecipitated with anti-FLAG antibody, western blot with anti-HA antibody
[2] = biological target: FLAG-tagged full-length Ipr1 (mouse intracellular pathogen resistance 1) (mouse) (UniProt Q8BVK9); assay: as above

HA-tagged Ipr1 ΔcNLS1/2-R424A-K429A mutant (from UniProt Q8BVK9 1-445)
binding [1]: no binding

HA-tagged Ipr1-ΔcNLS1/2 mutant (from UniProt Q8BVK9 1-445)
binding [1]: binds

HA-tagged full-length Ipr1 (from UniProt Q8BVK9 1-445)
binding [2]: binds
